Test results as given in PubChem BioAssay AID504444 (National Center for Advancing Translational Sciences (NCATS), 2011).
In all, about 360,000 compounds went through this assay and about 7,500 (2.1%) were called active. This list was built around the results that the source calls inconclusive (neither active nor inactive); the mix of calls is not that of the screen. The call rests on the fitted dose curve; in most records, active means well fitted inhibition curve with a large enough effect; inconclusive means small, poorly fitted or top-dose-only effect, or effect the other way; inactive means flat fitted curve, though single readings scatter. Potencies of inconclusive entries are doubtful fits and often do not repeat.

Assay: Nrf2 qHTS screen for inhibitors; further: nearly all actives have a fitted effect of over 60% in size
Conditions: A549 ARE-Fluc reporter, luciferase luminescence, 18-24 h; activity change, negative = inhibition: at 46 µM (top of the series)
How it was run: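 Cells were seeded and rested 2 h, then exposed to compounds for 18-24 h. CellTiter-Fluor was read first as a viability measure. BugLite was added 15 min before the final luminescent read of ARE-luciferase activity in A549 cells.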
On the % scale 0 is the no-effect control and ±100 the full control effect; potency means the concentration at half of the fitted maximal effect.

Compound	Potency	activity change, negative = inhibition
Cn1cnnc1SCC(=O)Nc1cccc(S(=O)(=O)N2CCOCC2)c1	inconclusive: 32.6 µM [falling, single point]	
COc1ccc(NS(=O)(=O)c2ccc3c(c2)OCCO3)cc1OC	active: 20.6 µM	
C=CCOc1c(Br)cc(CNc2ccc(NC(=O)CCC)cc2)cc1OCC	active: 14.6 µM	
O=C(Cn1cnc2cc([N+](=O)[O-])ccc2c1=O)NCCc1ccc(Cl)cc1	inconclusive: 0.0291 µM [falling, full curve, poor fit]	
O=C1C=C(c2cccc(Br)c2)C[C@@H](c2ccc(Cl)cc2)C1	inconclusive: 20.6 µM [falling, partial curve, poor fit]	
COc1ccc(CCn2c(SCC(=O)Nc3cc(C)on3)nc3ccsc3c2=O)cc1OC	inconclusive: 23.1 µM [falling, single point]	
CSc1nc2ccc(NC(=O)c3ccccn3)cc2s1	inconclusive: 1.46 µM [activator, partial curve]	
CCOC(=O)c1c(-c2ccccc2)oc2ccc(OCC(O)CNCCN(C)C)cc12 (stereo not given)		inactive: -14.9%
NC(=S)N=Nc1c(O)n(CCCl)c2ccc(Cl)cc12	inconclusive: 20.6 µM [falling, single point]	
CCOC(=O)N1CCN(C(=O)C(C)N(c2ccc(Oc3ccccc3)cc2)S(C)(=O)=O)CC1 (stereo not given)	inconclusive: 7.31 µM [falling, partial curve]	
Cc1nc(S(=O)(=O)c2ccc(Cl)cc2)c(NCc2ccccc2)o1	inconclusive: 25.9 µM [falling, single point]	
CC(C)C(=O)Nc1cccc(C(=O)OCC(=O)c2ccc(Cl)cc2Cl)c1	active: 20.6 µM	
Cc1ccc(C)c(NC(=O)c2nc(Cl)ccc2Cl)c1	inconclusive: 9.2 µM [activator, partial curve]	
CCC(C)C(=O)Nc1nc2ccc(OC)cc2s1 (stereo not given)	inconclusive: 14.6 µM [activator, partial curve]	
Cc1ccc(-c2cc(C(=O)Nc3cc(C)ccc3O)no2)cc1	inconclusive: 16.4 µM [activator, partial curve, poor fit]	
CC(C)c1ccc(NC2CCCN(C(=O)c3ccoc3)C2)cc1 (stereo not given)	inconclusive: 29.1 µM [falling, single point]	
CNC(=O)c1cc2c(cn1)[nH]c1ccccc12	inconclusive: 23.1 µM [activator, single point]	
Cc1cccc(NC(=O)C2CCCN(S(=O)(=O)c3ccc(-n4cnnn4)cc3)C2)c1 (stereo not given)	inconclusive: 25.9 µM [falling, single point]	
CCOC(=O)C1=C(CN2c3ccccc3CC2C)NC(=O)NC1c1ccccc1 (stereo not given)	inconclusive: 18.4 µM [falling, single point]	
O=C(CN1CCN(c2ncc(C(F)(F)F)cc2Cl)CC1)N1CCN(c2ncc(C(F)(F)F)cc2Cl)CC1	active: 11.2 µM	
COc1ccccc1-c1cc(C2CC2)nc(N)c1C#N		inactive: -4.89%
CN=c1sc2ccccc2n1CC(O)COCc1ccco1 (stereo not given)	inconclusive: 3.26 µM [activator, single point]	
CCCCc1ccc(/C(C)=N/Nc2cc(N3CCOCC3)nc(C)n2)cc1	inconclusive: 18.4 µM [falling, single point]	
O=C(Cn1nnc2ccccc2c1=O)NC1CCCCC1		inactive: 0.295%
N#C/C(=C\c1cccc(NC(=O)c2ccccc2Cl)c1)C(=O)NCCc1ccccc1		inactive: 9.9%

Compound	Potency	activity change, negative = inhibition
CCCCCn1c(N(C)Cc2ccccc2)nc2c1c(=O)[nH]c(=O)n2C	inconclusive: 18.4 µM [falling, single point]	
Cc1cccc(NC(=O)Cn2c(=O)n(CC3CCC(C(=O)NCCc4ccccc4)CC3)c(=O)c3ccccc32)c1 (stereo not given)	inconclusive: 2.06 µM [falling, partial curve, poor fit]	
O=C(NNc1c2ccccc2nc2ccccc12)c1cc2ccccc2cc1O	inconclusive: 23.1 µM [falling, partial curve, poor fit]	
O=S(=O)(NC1CC(NS(=O)(=O)OCC(Cl)(Cl)Cl)C2CCCCC12)OCC(Cl)(Cl)Cl (stereo not given)	inconclusive: 29.1 µM [falling, single point]	
CCCCCCCSc1nsc(N)n1	inconclusive: 23.1 µM [activator, partial curve, poor fit]	
CC(=O)c1ccc(NC(=O)c2ccc(-n3cnnn3)cc2)cc1		inactive: -8.23%
CCc1noc(C)c1C(=O)Nc1cc(S(=O)(=O)N2CCOCC2)ccc1OC(C)C		inactive: 2.56%
CCOc1ccc2nc(N3CCCC(C(=O)Nc4ccccc4CC)C3)sc2c1 (stereo not given)	inconclusive: 7.31 µM [activator, partial curve, poor fit]	
CCc1ccc(NC(=O)CSc2nc(-c3ccc(C)cc3)nc3c2Cc2c(CO)cnc(C)c2O3)cc1	inconclusive: 18.4 µM [activator, partial curve, poor fit]	
Nc1c(C(=O)N/N=C/c2ccc(F)cc2)oc2nc(-c3ccccc3)cc(-c3ccco3)c12	inconclusive: 29.1 µM [falling, single point]	
CCCn1cccc(C(=O)Nc2ccc(OC)cc2)c1=O	inconclusive: 25.9 µM [activator, partial curve, poor fit]	
CCN(CC)S(=O)(=O)c1ccc(Cl)c(NC(=O)c2ccncc2)c1		inactive: -11.1%
Cc1cccc(N(Cc2cc(=O)[nH]c3ccccc23)C(=O)CCl)c1		inactive: -22.6%
Cc1ccc(CNc2oc(-c3cccs3)nc2C#N)cc1	inconclusive: 25.9 µM [falling, partial curve, poor fit]	
Cn1c(-c2cccc(F)c2)nc2c1c(=O)[nH]c(=O)n2Cc1ccccc1	inconclusive: 16.4 µM [falling, partial curve]	
Fc1ccc2nc(N3CCOCC3)sc2c1	inconclusive: 29.1 µM [activator, single point]	
Cc1ccc(CSc2nc3c(c(=O)[nH]2)C(c2ccncc2)C2=C(CCCC2=O)N3)cc1 (stereo not given)		inactive: -6.4%
Cc1cc(OCCCCN2C(=O)NC(C)(C)C2=O)cc(C)c1Cl	inconclusive: 25.9 µM [falling, single point]	
CCOC(=O)C[n+]1c(C)csc1C		inactive: 0.491%
COc1ccc(C(=O)N2CCN(C(=O)c3ccc(-c4ccccc4)cc3)CC2)cc1OC	active: 13 µM	
c1ccc(Sc2ncnc3c2oc2ccccc23)cc1	inconclusive: 3.66 µM [activator, full curve]	
COc1ccc(N2CCN(C(=O)Cc3ncc(C(F)(F)F)cc3Cl)CC2)cc1		inactive: -23.7%
OCCCNc1cc(-c2ccnc(Nc3cccc(Cl)c3)n2)ccn1	inconclusive: 2.06 µM [activator, partial curve, poor fit]	
Cn1c(=O)n(C)c2cc([N+](=O)[O-])c(N3CCN(S(C)(=O)=O)CC3)cc21	inconclusive: 6.51 µM [falling, partial curve, poor fit]	
CSC1=NCCN1S(=O)(=O)c1ccc2ccccc2c1	inconclusive: 29.1 µM [falling, single point]	

Compound	Potency	activity change, negative = inhibition
Brc1cnc(N2CCOCC2)nc1N1CCCCC1	inconclusive: 0.13 µM [falling, full curve]	
Cc1ccc(-c2nn(CC(=O)NCc3cc(-c4nn(C)c(=O)c5ccccc45)ccc3C)c(=O)c3ccccc23)cc1	inconclusive: 2.31 µM [falling, single point]	
COc1ccc(NS(=O)(=O)c2ccc(N3CCN(CCO)CC3)c([N+](=O)[O-])c2)cc1	inconclusive: 7.31 µM [falling, full curve, poor fit]	
O=c1[nH]c(C2CCN(S(=O)(=O)c3ccccc3C(F)(F)F)CC2)nc2c1nnn2Cc1cccc(F)c1	active: 23.1 µM	
O=C(COc1ccccc1Cl)NNC(=O)Cn1[nH]c(=O)c2ccccc2c1=O	inconclusive: 11.6 µM [falling, partial curve, poor fit]	
Cc1nc2ccccc2n1Cc1ccc(Cl)cc1	active: 18.4 µM	
COc1ccc(-c2cc(-c3nc(-c4cc(OC)c(OC)c(OC)c4)no3)[nH]n2)c(OC)c1		inactive: -8.11%
COc1ccccc1NS(=O)(=O)c1cccc(C(=O)N/N=C/c2ccc3c(c2)OCCO3)c1	inconclusive: 23.1 µM [activator, partial curve]	
CSCC[C@H](NC(=O)[C@@H]1Cc2ccccc2CN1)C(=O)Nc1ccc2c(c1)OCCO2	inconclusive: 13 µM [activator, partial curve, poor fit]	
CCCCCCC(C)OC(=O)Nc1cccc2ccccc12 (stereo not given)	inconclusive: 20.6 µM [falling, partial curve, poor fit]	
COc1ccc(OC)c(/C=C/C(=O)OCC(=O)Nc2nnc(-c3ccccc3)o2)c1	inconclusive: 32.6 µM [falling, single point]	
COC(=O)Nc1nnc(-c2ccc(OC)cc2)s1	inconclusive: 2.06 µM [activator, full curve]	
Nc1ccc(-n2c(N)c(C(=O)NCc3ccc4c(c3)OCO4)c3nc4ccccc4nc32)cc1	inconclusive: 20.6 µM [falling, single point]	
Cc1c(NC(=O)c2cccs2)cccc1-c1nc2cc(Cl)ccc2o1	inconclusive: 29.1 µM [falling, single point]	
CCN(CC)C(=O)c1ccc(C(=O)c2c(C)cc(C)cc2C)cc1	inconclusive: 23.1 µM [falling, single point]	
N#C/C(=C\c1ccc(N2CCOCC2)o1)c1nc2ccccc2[nH]1	inconclusive: 2.06 µM [activator, partial curve]	
CC(=O)c1ccc(OCCCC(=O)NC2CCCc3ccccc32)cc1 (stereo not given)		inactive: -9.86%
Clc1ccccc1-c1nn2c(-c3ccccn3)nnc2s1		inactive: -0.0045%
O=C(NCCc1ccccc1)Nc1ccc2c(c1)OCO2	inconclusive: 29.1 µM [activator, single point]	
CCOc1ccc(NC(=O)c2nc(S(=O)(=O)Cc3ccccc3F)ncc2Cl)cc1	inconclusive: 23.1 µM [falling, partial curve, poor fit]	
CCN(CC)c1ccc(S(=O)(=O)N2CCOCC2)cc1NC(=O)CNCc1cccc(Cl)c1	active: 25.9 µM	
COc1ccc(OC2CCN(S(=O)(=O)c3ccc(F)cc3)CC2)cc1		inactive: -25%
O=C(CSc1nnc2ccccn12)N1CCc2ccccc21	inconclusive: 9.2 µM [activator, partial curve]	
COCCn1c(SCC(=O)c2c(-c3ccccc3)n(C)c3ccccc23)nnc1-c1ccncc1	inconclusive: 32.6 µM [activator, single point]	
O=c1c2c3c(sc2n(Cc2ccc(F)cc2Cl)c(=O)n1-c1ccc(Cl)cc1)CCC3		inactive: 14.9%

Reformatted with each value named: four of the compounds above
Brc1cnc(N2CCOCC2)nc1N1CCCCC1
  Potency: inconclusive: 0.13 µM [falling, full curve]
Cc1ccc(-c2nn(CC(=O)NCc3cc(-c4nn(C)c(=O)c5ccccc45)ccc3C)c(=O)c3ccccc23)cc1
  Potency: inconclusive: 2.31 µM [falling, single point]
COc1ccc(NS(=O)(=O)c2ccc(N3CCN(CCO)CC3)c([N+](=O)[O-])c2)cc1
  Potency: inconclusive: 7.31 µM [falling, full curve, poor fit]
O=c1[nH]c(C2CCN(S(=O)(=O)c3ccccc3C(F)(F)F)CC2)nc2c1nnn2Cc1cccc(F)c1
  Potency: active: 23.1 µM
